In paper PMC10825180:
Results are given in words; binding and its absence hold for the method and conditions named. In cells and extracts the contact can be indirect. Some entries that bind do so weakly or less than the wild type.

Chains of the proteins cited; added tags and fusions are not shown.
UniProt Q01196: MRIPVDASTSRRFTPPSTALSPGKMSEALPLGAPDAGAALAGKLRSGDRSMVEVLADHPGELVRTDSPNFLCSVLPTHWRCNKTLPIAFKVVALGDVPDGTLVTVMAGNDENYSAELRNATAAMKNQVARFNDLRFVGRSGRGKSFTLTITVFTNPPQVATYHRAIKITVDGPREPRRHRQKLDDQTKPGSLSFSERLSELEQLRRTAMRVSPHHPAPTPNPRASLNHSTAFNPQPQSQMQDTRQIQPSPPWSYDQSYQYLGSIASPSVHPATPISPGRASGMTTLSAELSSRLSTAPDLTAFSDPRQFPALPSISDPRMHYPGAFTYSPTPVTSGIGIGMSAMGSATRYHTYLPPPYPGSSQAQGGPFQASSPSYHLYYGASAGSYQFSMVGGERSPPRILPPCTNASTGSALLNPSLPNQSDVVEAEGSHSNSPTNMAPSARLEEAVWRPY
UniProt P06748: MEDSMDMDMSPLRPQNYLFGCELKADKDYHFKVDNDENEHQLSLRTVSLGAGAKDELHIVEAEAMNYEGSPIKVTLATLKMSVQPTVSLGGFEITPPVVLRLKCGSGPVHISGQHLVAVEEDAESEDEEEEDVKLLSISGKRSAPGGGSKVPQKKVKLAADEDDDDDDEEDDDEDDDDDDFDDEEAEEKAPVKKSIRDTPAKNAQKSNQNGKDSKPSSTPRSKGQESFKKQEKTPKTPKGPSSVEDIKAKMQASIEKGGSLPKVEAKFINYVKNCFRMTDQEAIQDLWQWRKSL

Columns and labels:
[1] = molecular target: RUNX1, wild type, tagged (plasmid) (UniProt Q01196); experiment: co-IP; total lysates of HEK 293T cells expressing wild type or truncations of RUNX1 and NPM1; precipitated and blotted with antibodies against HA or MYC tags
[2] = molecular target: Runt-related transcription factor 1 (RUNX1) (human (endogenous in GBM cells)) (UniProt Q01196); experiment: proximity ligation; fixed and permeabilised GBM cells, two primary antibodies, PLA plus and minus probes, confocal microscopy
[3] = molecular target: Runt-related transcription factor 1 (RUNX1) (human (endogenous in GBM cells)) (UniProt Q01196); experiment: co-IP; endogenous proteins of GBM cells; NP-40 lysis buffer; anti-RUNX1 or anti-NPM1 antibody with magnetic beads overnight at 4 °C; western blot; also done after siRNA depletion of NPM1 in N9 and TBD0220 cells

binding [1]	binding [2]	binding [3]	Substance
binds	–	–	NPM1, wild type, tagged (plasmid) (from UniProt P06748 1-294)
–	binds	binds	Nucleophosmin 1 (NPM1) (from UniProt P06748 1-294)
